These are yes or no findings as the source states them, for the method shown. Binding seen in cells or lysates may run through a third protein. Some entries that bind do so weakly or less than the wild type.
Experiments:
Experiment in all cases: co-IP
[1] = molecular target: topoisomerase 2β (Top2β) (mouse (endogenous in ES cells)) (UniProt Q64511)
[2] = molecular target: Kap1 (mouse (endogenous in ES cells)) (UniProt Q62318)
[3] = molecular target: Xrcc1 (mouse (endogenous in ES cells)) (UniProt Q60596)
[4] = molecular target: Parp1 (mouse (endogenous in ES cells)) (UniProt P11103)

Amino acid sequences for entries named in this document (tags omitted).
UniProt Q64511: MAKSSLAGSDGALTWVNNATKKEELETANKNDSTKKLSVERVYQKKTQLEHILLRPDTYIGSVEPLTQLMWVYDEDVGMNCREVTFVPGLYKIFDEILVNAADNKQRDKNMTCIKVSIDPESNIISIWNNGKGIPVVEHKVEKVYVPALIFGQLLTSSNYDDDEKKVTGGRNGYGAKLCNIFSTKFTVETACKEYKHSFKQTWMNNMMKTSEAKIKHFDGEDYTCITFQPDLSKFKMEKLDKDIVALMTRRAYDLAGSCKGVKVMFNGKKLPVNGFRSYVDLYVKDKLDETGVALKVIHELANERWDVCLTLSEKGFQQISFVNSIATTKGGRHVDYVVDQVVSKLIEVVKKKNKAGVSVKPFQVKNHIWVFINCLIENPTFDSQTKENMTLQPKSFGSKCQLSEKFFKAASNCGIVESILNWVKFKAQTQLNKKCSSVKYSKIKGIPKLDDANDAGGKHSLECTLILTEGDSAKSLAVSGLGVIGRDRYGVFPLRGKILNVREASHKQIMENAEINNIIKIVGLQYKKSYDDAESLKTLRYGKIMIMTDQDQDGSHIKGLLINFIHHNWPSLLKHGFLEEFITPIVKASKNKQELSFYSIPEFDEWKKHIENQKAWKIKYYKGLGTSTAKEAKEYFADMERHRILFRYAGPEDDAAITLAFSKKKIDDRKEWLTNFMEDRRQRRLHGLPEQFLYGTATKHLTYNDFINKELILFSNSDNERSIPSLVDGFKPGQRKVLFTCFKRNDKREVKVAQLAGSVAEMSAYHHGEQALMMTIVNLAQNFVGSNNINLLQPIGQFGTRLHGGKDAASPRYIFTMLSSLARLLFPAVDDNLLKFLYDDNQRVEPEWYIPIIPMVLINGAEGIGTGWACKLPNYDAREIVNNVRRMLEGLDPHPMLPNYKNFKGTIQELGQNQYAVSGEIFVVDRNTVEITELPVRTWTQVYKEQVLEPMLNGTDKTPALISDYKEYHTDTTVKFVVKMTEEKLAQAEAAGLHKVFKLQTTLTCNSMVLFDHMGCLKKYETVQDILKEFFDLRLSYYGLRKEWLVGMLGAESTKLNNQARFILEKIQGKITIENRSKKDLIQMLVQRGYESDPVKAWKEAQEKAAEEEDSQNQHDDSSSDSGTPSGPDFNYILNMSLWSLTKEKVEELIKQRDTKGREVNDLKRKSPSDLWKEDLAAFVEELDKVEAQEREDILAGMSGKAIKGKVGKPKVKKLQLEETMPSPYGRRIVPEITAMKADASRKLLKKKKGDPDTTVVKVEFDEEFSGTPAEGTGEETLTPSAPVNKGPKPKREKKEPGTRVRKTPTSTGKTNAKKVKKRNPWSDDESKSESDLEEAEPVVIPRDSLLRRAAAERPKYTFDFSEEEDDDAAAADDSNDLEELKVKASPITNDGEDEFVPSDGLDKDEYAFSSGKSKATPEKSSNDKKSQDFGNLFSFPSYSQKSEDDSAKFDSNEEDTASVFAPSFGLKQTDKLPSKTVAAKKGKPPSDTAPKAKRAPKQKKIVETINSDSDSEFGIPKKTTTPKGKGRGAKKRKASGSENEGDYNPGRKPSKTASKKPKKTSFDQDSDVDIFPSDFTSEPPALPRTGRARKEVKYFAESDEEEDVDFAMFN
UniProt Q62318: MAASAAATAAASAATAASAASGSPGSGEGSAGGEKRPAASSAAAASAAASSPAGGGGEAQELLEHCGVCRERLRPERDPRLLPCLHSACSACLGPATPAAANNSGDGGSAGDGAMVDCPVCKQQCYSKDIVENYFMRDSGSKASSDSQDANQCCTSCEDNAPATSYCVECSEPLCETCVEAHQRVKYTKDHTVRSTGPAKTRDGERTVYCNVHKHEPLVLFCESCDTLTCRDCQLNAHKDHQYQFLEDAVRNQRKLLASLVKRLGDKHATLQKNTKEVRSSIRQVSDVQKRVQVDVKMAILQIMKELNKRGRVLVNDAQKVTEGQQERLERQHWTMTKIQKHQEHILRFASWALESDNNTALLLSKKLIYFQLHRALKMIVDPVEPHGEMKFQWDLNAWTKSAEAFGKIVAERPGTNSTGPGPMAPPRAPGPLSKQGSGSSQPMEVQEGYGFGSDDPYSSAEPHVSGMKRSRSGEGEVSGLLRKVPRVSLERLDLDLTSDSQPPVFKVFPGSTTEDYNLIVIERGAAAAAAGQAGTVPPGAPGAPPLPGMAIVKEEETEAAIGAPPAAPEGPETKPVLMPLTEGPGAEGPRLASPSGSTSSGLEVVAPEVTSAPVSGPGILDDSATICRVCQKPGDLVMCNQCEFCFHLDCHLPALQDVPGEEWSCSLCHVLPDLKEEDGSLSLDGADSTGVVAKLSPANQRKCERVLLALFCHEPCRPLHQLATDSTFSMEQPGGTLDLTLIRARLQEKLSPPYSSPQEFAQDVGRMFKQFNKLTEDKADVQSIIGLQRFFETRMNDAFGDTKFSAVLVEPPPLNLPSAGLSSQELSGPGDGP
UniProt Q60596: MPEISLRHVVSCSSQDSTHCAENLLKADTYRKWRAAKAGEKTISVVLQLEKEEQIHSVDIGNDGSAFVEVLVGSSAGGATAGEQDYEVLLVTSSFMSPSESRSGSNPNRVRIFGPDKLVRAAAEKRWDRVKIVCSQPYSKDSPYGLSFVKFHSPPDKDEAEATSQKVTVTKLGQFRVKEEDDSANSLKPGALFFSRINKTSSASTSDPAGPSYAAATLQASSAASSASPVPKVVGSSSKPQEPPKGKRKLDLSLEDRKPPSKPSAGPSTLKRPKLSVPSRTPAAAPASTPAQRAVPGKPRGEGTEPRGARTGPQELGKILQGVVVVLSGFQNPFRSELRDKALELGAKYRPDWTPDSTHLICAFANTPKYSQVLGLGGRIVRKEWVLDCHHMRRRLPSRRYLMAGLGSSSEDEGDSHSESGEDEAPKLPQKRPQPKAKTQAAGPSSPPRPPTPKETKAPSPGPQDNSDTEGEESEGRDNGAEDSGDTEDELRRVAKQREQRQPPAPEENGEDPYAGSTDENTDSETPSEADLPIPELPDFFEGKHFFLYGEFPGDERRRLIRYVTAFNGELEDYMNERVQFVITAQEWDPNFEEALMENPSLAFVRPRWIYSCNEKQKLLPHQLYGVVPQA
UniProt P11103: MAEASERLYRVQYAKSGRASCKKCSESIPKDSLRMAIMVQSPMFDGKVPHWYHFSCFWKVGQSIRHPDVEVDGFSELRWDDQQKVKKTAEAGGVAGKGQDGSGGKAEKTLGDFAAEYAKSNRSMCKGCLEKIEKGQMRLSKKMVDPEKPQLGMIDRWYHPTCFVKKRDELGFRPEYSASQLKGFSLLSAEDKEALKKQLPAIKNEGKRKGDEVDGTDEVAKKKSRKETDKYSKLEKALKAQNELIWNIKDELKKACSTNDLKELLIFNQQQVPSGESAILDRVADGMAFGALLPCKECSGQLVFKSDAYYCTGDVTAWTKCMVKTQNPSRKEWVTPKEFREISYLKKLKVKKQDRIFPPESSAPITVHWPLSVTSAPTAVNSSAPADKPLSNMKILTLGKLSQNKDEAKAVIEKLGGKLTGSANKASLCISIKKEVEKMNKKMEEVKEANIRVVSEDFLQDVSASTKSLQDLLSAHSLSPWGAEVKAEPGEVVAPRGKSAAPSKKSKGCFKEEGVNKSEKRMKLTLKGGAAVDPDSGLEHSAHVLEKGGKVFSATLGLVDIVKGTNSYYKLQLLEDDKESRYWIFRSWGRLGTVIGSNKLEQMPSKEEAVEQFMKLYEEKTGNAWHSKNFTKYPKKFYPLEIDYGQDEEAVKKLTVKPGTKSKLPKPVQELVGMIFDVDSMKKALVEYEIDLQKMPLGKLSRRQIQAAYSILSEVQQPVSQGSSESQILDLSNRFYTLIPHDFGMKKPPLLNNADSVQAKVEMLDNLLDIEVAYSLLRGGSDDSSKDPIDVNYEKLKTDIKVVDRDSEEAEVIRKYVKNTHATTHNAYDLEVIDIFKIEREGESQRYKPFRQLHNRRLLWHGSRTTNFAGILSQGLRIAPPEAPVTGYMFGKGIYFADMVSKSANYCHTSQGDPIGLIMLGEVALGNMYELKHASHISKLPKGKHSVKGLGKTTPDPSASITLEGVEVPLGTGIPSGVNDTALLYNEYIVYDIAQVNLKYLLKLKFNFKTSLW
UniProt P40201: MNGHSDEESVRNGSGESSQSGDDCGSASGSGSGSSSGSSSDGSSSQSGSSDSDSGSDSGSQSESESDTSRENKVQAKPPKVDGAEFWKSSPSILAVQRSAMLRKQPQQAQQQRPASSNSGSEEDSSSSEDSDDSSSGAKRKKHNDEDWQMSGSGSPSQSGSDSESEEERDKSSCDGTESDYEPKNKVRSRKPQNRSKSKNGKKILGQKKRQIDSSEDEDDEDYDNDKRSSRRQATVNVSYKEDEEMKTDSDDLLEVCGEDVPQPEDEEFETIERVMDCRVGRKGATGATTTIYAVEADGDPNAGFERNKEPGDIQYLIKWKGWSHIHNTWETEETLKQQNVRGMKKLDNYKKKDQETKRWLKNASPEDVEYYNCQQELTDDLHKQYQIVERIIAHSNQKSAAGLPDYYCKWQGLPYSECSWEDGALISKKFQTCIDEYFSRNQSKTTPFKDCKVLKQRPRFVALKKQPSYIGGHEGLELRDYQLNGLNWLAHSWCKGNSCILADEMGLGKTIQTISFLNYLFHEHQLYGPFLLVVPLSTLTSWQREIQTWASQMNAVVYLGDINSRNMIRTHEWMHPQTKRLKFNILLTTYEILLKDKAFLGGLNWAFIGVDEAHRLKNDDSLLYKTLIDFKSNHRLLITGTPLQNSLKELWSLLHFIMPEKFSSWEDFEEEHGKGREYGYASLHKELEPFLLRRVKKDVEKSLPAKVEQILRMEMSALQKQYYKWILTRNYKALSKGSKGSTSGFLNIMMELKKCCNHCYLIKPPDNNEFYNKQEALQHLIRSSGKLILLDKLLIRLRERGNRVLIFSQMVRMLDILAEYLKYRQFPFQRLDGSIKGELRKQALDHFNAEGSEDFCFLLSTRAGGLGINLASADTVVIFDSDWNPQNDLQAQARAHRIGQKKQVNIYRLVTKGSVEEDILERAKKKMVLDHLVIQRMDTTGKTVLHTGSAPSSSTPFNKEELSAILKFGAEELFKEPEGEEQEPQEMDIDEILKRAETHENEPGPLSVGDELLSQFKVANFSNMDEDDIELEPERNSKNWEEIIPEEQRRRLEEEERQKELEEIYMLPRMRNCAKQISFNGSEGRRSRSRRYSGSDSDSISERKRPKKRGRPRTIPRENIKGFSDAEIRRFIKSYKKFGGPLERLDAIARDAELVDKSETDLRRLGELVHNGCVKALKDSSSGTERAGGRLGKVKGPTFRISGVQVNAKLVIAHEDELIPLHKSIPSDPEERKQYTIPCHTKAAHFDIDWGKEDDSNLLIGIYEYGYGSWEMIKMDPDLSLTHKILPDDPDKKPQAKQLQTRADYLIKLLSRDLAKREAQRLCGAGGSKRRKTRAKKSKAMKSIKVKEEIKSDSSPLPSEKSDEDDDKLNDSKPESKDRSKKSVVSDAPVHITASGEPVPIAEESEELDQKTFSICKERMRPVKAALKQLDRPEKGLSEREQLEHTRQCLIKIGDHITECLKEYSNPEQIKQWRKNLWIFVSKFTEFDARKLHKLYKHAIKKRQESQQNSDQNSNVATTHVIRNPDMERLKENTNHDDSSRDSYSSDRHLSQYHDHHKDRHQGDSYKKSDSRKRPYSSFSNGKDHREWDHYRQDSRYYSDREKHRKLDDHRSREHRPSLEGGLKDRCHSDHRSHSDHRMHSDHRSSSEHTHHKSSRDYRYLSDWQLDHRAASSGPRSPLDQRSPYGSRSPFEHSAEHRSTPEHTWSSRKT

With Chd1 (from UniProt P40201 1-1711) the binding [1] was “binds”, the binding [2] was “binds” and the binding [3] was “no binding”. For the same substance, the binding [4] was “binds”.

From paper doi:10.1101/659995
